Some test systems named below: ACTC1 (human); ACTN2 (human); ACTN4 (human); ACY1 (human); ACY3 (human); ADD1 (human); ADI1 (human); ADRM1 (human); AFAP1L1 (human); AFG3L1 (human); AHNAK (human); AHSG (human); AIF1 (human); AK3L1 (human); AKR1B10 (human); ALB (human); ALDH3A1 (human); ALG13 (human); ALOX15 (human).
What all share (experiment): protein microarray (ProtoArray v5.0), streptavidin-Alexa Fluor 647
Holding throughout (details): 3'-biotin; 20 mM Tris (pH 7.5), 5 mM MgCl2, 100 mM KCl, 0.1% Tween-20, A/T-rich and random oligonucleotide blockers; temperature not stated; high values mean tight binding

The next assay has as its target ADRB2 (UniProt P07550).

Where “and” joins values, the source holds several entries; their conditions need not be identical. Equal entries are not always repeated. This is one part of the list. For some assays here: Construct or isoform of the protein are uncertain.

As to “GGGGACAGGGGTATGGGGAGGGG [G4-3 biotinylated (CtG)]”, the binding signal is -0.322 z-score in the assay with ACTC1 (human); -0.333 z-score with ACTN2 (human); -0.315 z-score in the assay with ACTN4 (human); -0.336 z-score with ACY1 (human); -0.332 z-score with ACY3 (human); -0.339 z-score in the assay on ADD1 (human). Moreover, the binding signal in the assay on ADI1 (human) was -0.34 z-score; with ADRB2, -0.287 z-score; in the assay with ADRM1 (human), -0.339 z-score; with AFAP1L1 (human) it was -0.316 z-score; with AFG3L1 (human), -0.327 z-score; in the assay with AHNAK (human) it was -0.298 z-score. Also, the binding signal in the assay on AHSG (human) is -0.304 z-score; in the assay on AIF1 (human), -0.345 z-score and -0.33 z-score; with AK3L1 (human) it was -0.329 z-score; in the assay with AKR1B10 (human), -0.329 z-score; in the assay with ALB (human) it was -0.328 z-score; with ALDH3A1 (human), -0.318 z-score. The binding signal in the assay on ALG13 (human) is -0.321 z-score; in the assay with ALOX15 (human), -0.333 z-score.

Source of the values: publication PMC5996148.
